Values from PubChem BioAssay AID720505 (Drosophila RNAi Screening Center, 2013).
The screen tested about 20,000 reagents; this is an unselected part of those that have a named target and a result. Of all reagents, about 2,100 (10%) are marked active. 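Raw plate signals without normalisation; calls rest on control-based scores that were not deposited; replicate 2 separates called from uncalled poorly.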 Reagents against one gene are numbered here. A plus sign joins genes that one reagent is predicted to hit. No sequences are given here. Not given: the amount of reagent, the time to read-out.

Screen: 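Fly regulators or components of the CRAC channel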 (primary screen)
System: Drosophila S2R+ cells
Reagent: long dsRNA against Drosophila genes
Treatment: thapsigargin (2 µM) in calcium-free buffer to empty internal stores, then 2 mM calcium added back
Read-out: 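Fluo-4 signal in 384-well plates read on a FLIPR after thapsigargin (2 µM, calcium-free) store depletion and 2 mM calcium add-back; unnormalised mean endpoint per well; screen run twice, selected wells retested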
Reading the numbers: calcium signal and retest calcium signal: higher = more calcium entry after store depletion
Call rule: 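About 1500 genes called as lowering calcium entry, by varying amounts, judged against per-plate control wells with STIM1 as positive and Rho1 as negative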
Meaning of the calls: active = called as lowering calcium entry; inactive = not called

gene knocked down | reagent | calcium signal, replicate 1 | calcium signal, replicate 2 | retest calcium signal, replicate 1 | retest calcium signal, replicate 2 | call
danr (distal antenna-related) | 1 | 234 | 170 | – | – | inactive
CG4743 | 1 | 180 | 110 | – | – | inactive
PH4alphaPV (prolyl-4-hydroxylase-alpha PV) | 1 | 93.8 | 119 | – | – | inactive
CG34169 | 1 | 130 | 93.7 | – | – | inactive
E(spl)m6-BFM (Enhancer of split m6, Bearded family member) | 1 | 208 | 140 | – | – | inactive
beat-Ib (beaten path Ib) | 1 | 134 | 123 | – | – | inactive
ttm50 (tiny tim 50) | 1 | 122 | 137 | – | – | inactive
msl-3 (male-specific lethal 3) | 1 | 71.3 | 76.5 | – | – | inactive
CG31688 | 1 | 224 | 97.6 | – | – | inactive
CG31688 | 2 | 154 | 97.7 | – | – | inactive
wcd (wicked) | 1 | 185 | 110 | – | – | inactive
CG6738 | 1 | 175 | 124 | – | – | inactive
CG13202 | 1 | 99.5 | 155 | – | – | inactive
CG8850 | 1 | 146 | 291 | – | – | inactive
CG31928 | 1 | 127 | 196 | – | – | inactive
Polr1A (RNA polymerase I subunit A) | 1 | 127 | 115 | – | – | inactive
Oscillin | 1 | 138 | 165 | 92 | 105 | inactive
fig (fos intronic gene) | 1 | 139 | 162 | – | – | inactive
CG6230 | 1 | 76.8 | 84 | – | – | inactive
tara (taranis) | 1 | 150 | 191 | – | – | inactive
tara (taranis) | 2 | 162 | 142 | – | – | inactive
GCC185 (GRIP and coiled-coil domain containing 185 kDa) | 1 | 203 | 75.9 | – | – | inactive
CG42331 | 1 | 71.8 | 146 | – | – | inactive
CG42331 | 2 | 164 | 90.3 | – | – | inactive
Hpf1 (Histone PARylation factor 1) | 1 | 118 | 124 | – | – | inactive
beat-Vc (beaten path Vc) | 1 | – | – | – | – | active
beat-Vc (beaten path Vc) | 2 | 150 | 72.9 | – | – | inactive
Tsp42Ej (Tetraspanin 42Ej) | 1 | 157 | 105 | – | – | inactive
mAcon1 (Mitochondrial aconitase 1) | 1 | 160 | 100 | – | – | inactive
stan (starry night) | 1 | 61.8 | 104 | – | – | inactive
stan (starry night) | 2 | 139 | 104 | – | – | inactive
CG11668 | 1 | 89.7 | 119 | – | – | inactive
fzr2 (fizzy-related 2) | 1 | 130 | 126 | – | – | inactive
senju | 1 | 155 | 106 | – | – | inactive
CG15602 | 1 | 110 | 131 | – | – | inactive
CG18682 (retired record) | 1 | 169 | 151 | – | – | inactive
CG18682 (retired record) | 2 | 196 | 146 | 8525 | 125 | inactive
SkpB (SKP1-related B) | 1 | 92 | 115 | – | – | inactive
dpr8 (defective proboscis extension response 8) | 1 | 115 | 149 | – | – | inactive
dpr8 (defective proboscis extension response 8) | 2 | 131 | 147 | – | – | inactive
dpr8 (defective proboscis extension response 8) | 3 | 107 | 133 | – | – | inactive
dpr8 (defective proboscis extension response 8) | 4 | 99.5 | 119 | – | – | inactive
CG12016 + Dpm2 | 1 | 120 | 109 | – | – | inactive
CG13540 | 1 | 85.1 | 141 | – | – | inactive
CG5321 | 1 | 68.5 | 115 | – | – | active
CG5321 | 2 | 78.2 | 107 | – | – | inactive
COX6B (Cytochrome c oxidase subunit 6B) | 1 | 140 | 118 | – | – | inactive
CG33307 | 1 | 219 | 94.5 | – | – | inactive
mtSSB (mitochondrial single stranded DNA-binding protein) | 1 | 146 | 156 | – | – | inactive
CG15563 | 1 | 105 | 96.9 | – | – | inactive
CG8641 | 1 | 138 | 89.1 | – | – | inactive
RhoU | 1 | 105 | 104 | – | – | inactive
RhoU | 2 | 108 | 87.5 | 6517 | 167 | inactive
RhoU | 3 | 100 | 212 | – | – | inactive
RhoU | 4 | 89.3 | 90.7 | – | – | inactive
aru (arouser) | 1 | 119 | 165 | – | – | inactive
aru (arouser) | 2 | 89.4 | 254 | – | – | inactive
Drsl1 (Drosomycin-like 1) | 1 | 105 | 164 | – | – | inactive
CG6236 | 1 | 116 | 107 | – | – | inactive
Snx1 (Sorting nexin 1) | 1 | 199 | 157 | – | – | inactive
bard | 1 | 123 | 144 | – | – | inactive
CR43361 (pseudo) | 1 | 65.3 | 117 | – | – | active
CG7974 | 1 | 214 | 87.1 | – | – | inactive
CR33318 (pseudo) | 1 | 101 | 136 | – | – | inactive
kmr (kramer) | 1 | – | – | – | – | active
kmr (kramer) | 2 | 84.5 | 149 | – | – | inactive
kmr (kramer) | 3 | 102 | 189 | – | – | inactive
kmr (kramer) | 4 | 103 | 88 | – | – | inactive
CG31464 | 1 | 90.7 | 169 | – | – | inactive
TpnC4 (Troponin C isoform 4) | 1 | 139 | 152 | – | – | inactive
CG1316 | 1 | 93.5 | 111 | – | – | inactive
Loxl2 (Lysyl oxidase-like 2) | 1 | 153 | 118 | – | – | inactive
AdamTS-B (ADAM metallopeptidase with thrombospondin type 1 motif B) | 1 | 120 | 92.9 | – | – | inactive
CG14110 | 1 | 109 | 119 | – | – | inactive
CG14650 | 1 | 67.5 | 143 | 98.7 | 65.5 | inactive
CG14810 | 1 | 131 | 155 | – | – | inactive
CG43183 | 1 | 99.7 | 130 | – | – | inactive
Ercc1 | 1 | 130 | 118 | – | – | inactive
Nt5c (5' nucleotidase C) | 1 | 154 | 98.4 | – | – | inactive
CG3916 | 1 | 123 | 99 | – | – | inactive
CG15035 | 1 | 265 | 114 | – | – | inactive
CG10444 | 1 | 184 | 85.7 | – | – | inactive
ClpP (Caseinolytic protease proteolytic subunit) | 1 | 110 | 106 | – | – | inactive
CG17207 | 1 | 179 | 127 | – | – | inactive
asRNA:CR43463 + Pgant35A | 1 | 101 | 86.7 | 108 | 141 | inactive
RhoL (Rho-like) | 1 | 118 | 152 | – | – | inactive
CG42249 | 1 | 103 | 82.8 | – | – | inactive
CG42249 | 2 | 109 | 120 | – | – | inactive
Osi1 (Osiris 1) | 1 | 99.5 | 159 | – | – | inactive
CG17896 | 1 | 110 | 140 | – | – | inactive
Amph (Amphiphysin) | 1 | 164 | 185 | – | – | inactive
CG14720 | 1 | 176 | 111 | – | – | inactive
EMC2B + EMC2A | 1 | 166 | 200 | – | – | inactive
CG5104 | 1 | 116 | 172 | – | – | inactive
CG11413 + CG4622 | 1 | 134 | 173 | – | – | inactive
Cortactin | 1 | 174 | 233 | – | – | inactive
karr | 1 | 227 | 79.3 | – | – | inactive
CG7519 | 1 | 103 | 104 | – | – | inactive
Hem (HEM-protein) | 1 | 133 | 115 | – | – | inactive
CG31161 | 1 | 134 | 94.2 | – | – | inactive
CG32109 | 1 | 79.9 | 68.1 | – | – | inactive
Rsbp15 (Radial spoke binding protein 15) | 1 | 72.2 | 133 | – | – | active
CG42749 | 1 | 62.6 | 300 | – | – | active
CG42749 | 2 | 294 | 94.8 | – | – | inactive
Cad99C (Cadherin 99C) | 1 | 191 | 154 | – | – | inactive
Cad99C (Cadherin 99C) | 2 | 123 | 124 | – | – | inactive
